This assay concerns the target sigma receptor-1 (mouse (endogenous in brain cortex)) (UniProt O55242). Description: co-IP; solubilized brain cortex membrane fractions of wild-type and IL-10 knockout mice (20 mM Tris-HCl pH 8.0, 137 mM NaCl, 10 % glycerol, 1 % Triton X-100, 2 mM EDTA); anti-SigR1 antibody and Protein A/G-agarose overnight at 4 °C; eluate analysed by Western blotting. (In general: A western blot detects proteins with antibodies after separation by electrophoresis.)

By UniProt entry, the sequences of proteins in these tests, tags left out. Residues count along the entry.
UniProt O55242: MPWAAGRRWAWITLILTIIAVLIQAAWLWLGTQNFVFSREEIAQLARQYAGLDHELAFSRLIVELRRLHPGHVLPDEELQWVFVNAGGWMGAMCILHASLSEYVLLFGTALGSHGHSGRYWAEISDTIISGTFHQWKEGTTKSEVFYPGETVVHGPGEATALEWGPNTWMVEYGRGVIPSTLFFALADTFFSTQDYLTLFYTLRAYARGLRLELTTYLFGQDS
UniProt Q01097, residues 27-1482: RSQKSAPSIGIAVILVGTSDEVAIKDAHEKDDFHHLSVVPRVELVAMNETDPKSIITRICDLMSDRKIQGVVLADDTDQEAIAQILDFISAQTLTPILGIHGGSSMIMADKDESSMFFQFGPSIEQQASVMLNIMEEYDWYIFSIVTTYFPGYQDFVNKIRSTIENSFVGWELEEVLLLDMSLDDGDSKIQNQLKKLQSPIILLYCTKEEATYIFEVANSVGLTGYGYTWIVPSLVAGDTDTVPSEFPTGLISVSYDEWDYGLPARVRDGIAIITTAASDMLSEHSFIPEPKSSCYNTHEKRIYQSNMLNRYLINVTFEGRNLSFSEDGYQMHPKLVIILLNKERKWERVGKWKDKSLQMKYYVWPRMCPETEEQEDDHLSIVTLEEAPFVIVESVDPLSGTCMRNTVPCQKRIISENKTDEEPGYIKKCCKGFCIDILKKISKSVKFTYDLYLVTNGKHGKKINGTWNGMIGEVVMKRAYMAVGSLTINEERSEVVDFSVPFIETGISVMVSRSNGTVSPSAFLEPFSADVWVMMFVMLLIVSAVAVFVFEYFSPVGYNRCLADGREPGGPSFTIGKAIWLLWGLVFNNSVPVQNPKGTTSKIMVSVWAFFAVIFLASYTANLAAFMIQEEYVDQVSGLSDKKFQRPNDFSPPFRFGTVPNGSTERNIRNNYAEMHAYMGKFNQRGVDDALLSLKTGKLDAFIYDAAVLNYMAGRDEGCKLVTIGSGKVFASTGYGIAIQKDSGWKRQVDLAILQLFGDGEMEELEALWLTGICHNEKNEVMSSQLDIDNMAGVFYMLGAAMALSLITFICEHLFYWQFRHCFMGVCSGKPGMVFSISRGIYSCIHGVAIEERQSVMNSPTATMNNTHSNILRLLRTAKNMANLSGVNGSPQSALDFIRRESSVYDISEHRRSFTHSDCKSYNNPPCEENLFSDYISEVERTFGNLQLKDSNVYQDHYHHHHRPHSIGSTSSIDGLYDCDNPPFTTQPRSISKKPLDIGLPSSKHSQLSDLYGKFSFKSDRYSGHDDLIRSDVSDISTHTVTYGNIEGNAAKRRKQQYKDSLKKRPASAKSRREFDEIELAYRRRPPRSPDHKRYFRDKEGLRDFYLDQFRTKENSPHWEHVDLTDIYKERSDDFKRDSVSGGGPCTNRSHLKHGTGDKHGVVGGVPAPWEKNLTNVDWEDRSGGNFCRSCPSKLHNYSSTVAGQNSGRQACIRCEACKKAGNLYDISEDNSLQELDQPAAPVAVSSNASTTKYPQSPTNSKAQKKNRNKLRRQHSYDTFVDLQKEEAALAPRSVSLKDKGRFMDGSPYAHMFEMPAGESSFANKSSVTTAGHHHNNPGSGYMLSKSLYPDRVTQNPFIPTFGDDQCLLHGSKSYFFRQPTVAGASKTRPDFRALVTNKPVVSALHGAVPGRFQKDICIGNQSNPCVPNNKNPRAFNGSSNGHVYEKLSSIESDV
UniProt P20029, residues 20-655: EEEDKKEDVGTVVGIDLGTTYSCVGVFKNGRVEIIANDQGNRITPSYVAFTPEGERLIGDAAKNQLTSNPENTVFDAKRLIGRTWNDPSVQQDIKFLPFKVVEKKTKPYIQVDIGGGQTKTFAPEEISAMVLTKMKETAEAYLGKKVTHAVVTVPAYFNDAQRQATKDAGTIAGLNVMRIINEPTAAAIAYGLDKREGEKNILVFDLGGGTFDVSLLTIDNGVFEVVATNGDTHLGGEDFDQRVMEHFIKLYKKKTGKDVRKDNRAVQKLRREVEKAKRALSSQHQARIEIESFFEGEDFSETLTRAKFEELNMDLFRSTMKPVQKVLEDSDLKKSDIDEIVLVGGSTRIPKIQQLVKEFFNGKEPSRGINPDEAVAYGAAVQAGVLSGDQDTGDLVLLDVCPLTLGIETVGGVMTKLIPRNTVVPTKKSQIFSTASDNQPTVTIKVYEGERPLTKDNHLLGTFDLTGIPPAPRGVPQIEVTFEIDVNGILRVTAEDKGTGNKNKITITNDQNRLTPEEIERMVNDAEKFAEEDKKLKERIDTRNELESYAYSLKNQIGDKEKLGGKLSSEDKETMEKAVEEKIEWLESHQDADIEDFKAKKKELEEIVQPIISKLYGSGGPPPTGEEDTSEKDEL

Results are given in words; binding and its absence hold for the method and conditions named. In cells and extracts the contact can be indirect. Some results given as binding are weak or reduced against the parent protein; the word gives no strength.

As to “NR2B subunit of NMDA-receptor (from UniProt Q01097 27-1482)”, the binding entry is given as “binds”.
Regarding “immunoglobulin binding protein (from UniProt P20029 20-655)”, the binding result is given as “binds”.

Values taken from PMC4599652.
